From PMC3244432
These are yes or no findings as the source states them, for the method shown. Binding seen in cells or lysates may run through a third protein. Some entries that bind do so weakly or less than the wild type.

Chains of the proteins cited; added tags and fusions are not shown.
UniProt Q15691: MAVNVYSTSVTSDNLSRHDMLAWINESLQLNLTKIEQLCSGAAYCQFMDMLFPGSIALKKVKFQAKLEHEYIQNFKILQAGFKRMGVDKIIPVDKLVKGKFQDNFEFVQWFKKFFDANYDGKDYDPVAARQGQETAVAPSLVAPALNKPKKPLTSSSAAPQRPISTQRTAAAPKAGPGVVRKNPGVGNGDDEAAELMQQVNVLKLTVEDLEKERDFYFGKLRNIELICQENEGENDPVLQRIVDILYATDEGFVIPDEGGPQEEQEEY
UniProt Q9JK25: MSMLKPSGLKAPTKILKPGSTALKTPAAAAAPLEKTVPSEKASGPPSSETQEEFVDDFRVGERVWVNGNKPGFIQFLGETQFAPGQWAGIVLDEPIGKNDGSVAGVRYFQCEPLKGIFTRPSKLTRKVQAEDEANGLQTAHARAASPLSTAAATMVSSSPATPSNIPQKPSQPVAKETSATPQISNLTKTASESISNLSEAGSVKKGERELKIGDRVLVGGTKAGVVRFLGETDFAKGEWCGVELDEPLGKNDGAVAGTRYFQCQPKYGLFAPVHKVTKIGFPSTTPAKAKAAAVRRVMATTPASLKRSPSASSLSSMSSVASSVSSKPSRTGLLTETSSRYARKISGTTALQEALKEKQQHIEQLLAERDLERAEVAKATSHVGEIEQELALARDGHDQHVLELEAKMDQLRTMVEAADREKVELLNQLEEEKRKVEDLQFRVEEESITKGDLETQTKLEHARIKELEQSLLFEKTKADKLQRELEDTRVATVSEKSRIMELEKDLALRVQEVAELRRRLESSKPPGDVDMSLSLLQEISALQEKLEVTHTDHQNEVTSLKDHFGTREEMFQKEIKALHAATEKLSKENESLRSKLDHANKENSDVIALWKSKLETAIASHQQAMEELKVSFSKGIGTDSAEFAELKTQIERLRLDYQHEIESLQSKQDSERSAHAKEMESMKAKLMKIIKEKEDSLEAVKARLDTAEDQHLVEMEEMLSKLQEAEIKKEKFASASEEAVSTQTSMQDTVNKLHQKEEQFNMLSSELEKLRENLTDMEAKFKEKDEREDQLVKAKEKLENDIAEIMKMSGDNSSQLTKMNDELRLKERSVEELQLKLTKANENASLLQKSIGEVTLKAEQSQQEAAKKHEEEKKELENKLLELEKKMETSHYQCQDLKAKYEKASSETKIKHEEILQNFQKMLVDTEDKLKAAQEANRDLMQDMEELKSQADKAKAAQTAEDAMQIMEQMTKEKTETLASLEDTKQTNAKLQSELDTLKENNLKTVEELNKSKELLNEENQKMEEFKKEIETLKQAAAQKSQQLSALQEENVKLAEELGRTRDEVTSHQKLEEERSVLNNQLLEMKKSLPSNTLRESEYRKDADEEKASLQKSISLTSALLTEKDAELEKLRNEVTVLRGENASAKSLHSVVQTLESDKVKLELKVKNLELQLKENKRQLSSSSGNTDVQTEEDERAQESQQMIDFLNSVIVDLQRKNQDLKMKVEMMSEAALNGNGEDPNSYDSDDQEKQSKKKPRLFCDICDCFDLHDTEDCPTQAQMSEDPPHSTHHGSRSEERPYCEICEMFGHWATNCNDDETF

Target: GST-EB1 (UniProt Q15691)
Experiment: pull-down; GST-EB1 on glutathione-agarose beads pre-incubated with saturating amounts of antibody 1A11 or non-specific IgG 4 U, washed, then used in precipitations from NRK-52E cell extracts (or extracts of cells expressing GFP-APC-C3); SDS-PAGE and Western blotting; only the target purified

binding: binds
Substance: CLIP-170 (from UniProt Q9JK25 1-1320)
